From patent US10183950B2, “Thienopyrimidine inhibitors of atypical protein kinase C” (Cancer Research Technology Limited, priority 2011, dated 2019)
Structures were worked out from names or drawings and are uncertain.

The chains behind the UniProt entries cited, without tags or fusion partners. Residues count along the entry.
UniProt P41743, whole entry: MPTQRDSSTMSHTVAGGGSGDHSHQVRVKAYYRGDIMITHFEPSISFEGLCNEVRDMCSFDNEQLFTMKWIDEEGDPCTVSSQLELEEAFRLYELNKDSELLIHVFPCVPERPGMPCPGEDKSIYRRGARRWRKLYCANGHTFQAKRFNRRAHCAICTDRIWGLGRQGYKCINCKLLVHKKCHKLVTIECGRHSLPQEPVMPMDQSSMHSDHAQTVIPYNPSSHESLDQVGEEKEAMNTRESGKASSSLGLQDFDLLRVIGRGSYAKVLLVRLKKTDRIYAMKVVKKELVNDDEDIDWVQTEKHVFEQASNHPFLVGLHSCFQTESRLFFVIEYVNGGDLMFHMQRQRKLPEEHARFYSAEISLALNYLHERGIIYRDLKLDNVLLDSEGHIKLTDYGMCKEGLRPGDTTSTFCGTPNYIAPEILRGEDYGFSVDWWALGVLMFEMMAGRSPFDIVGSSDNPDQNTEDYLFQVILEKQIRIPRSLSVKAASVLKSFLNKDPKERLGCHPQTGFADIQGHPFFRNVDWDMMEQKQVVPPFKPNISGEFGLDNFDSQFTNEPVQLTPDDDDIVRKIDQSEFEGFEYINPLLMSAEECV
UniProt P41743, 254-522 limits assumed: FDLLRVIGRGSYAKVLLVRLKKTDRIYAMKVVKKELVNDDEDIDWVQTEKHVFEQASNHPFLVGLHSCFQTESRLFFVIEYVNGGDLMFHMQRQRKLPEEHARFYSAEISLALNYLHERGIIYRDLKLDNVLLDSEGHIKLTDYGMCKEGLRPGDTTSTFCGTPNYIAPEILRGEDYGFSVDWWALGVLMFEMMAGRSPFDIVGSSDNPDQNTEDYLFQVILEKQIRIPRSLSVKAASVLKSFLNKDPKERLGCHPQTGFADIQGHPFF

What was measured:
[1] = molecular target: kinase-domain human PKCι (Homo sapiens, UniProt P41743); test: PKCι IC50 IMAP fluorescence polarisation assay, kinase-domain enzyme; assay type: biochemical; details: read-out: IC50 in IMAP assay against kinase domain PKCi (Activity); kinase domain PKCi at 2 μM ATP
[2] = molecular target: full-length human PKCι (Homo sapiens, UniProt P41743); test: PKCι IC50 IMAP fluorescence polarisation assay, full-length enzyme; details: read-out: IC50 in IMAP assay against full length PKCi; full length PKCi at 15 μM ATP

SMILES | IC50 [1] | IC50 [2]
Cc1ccc(CN2CCN(c3nc(-c4ccncc4)nc4sc5c(c34)CCCC5)CC2)cc1 | 10 to 40 µM | –
CC(C)S(=O)(=O)c1cccc(Nc2cc(-c3nc(N[C@@H]4CCNC4)c4sccc4n3)ccn2)c1 | – | 1 to 10 µM
